Reference: publication PMC9164399
No constants are given. Whether binding was seen depends on the method and setting. Binding seen in cells or lysates may run through a third protein. Some binding calls cover weakened binding; strength is not graded here. For part of these data: Where a sequence is shown, tags or fusion partners need not be part of it.

Amino acid sequences for entries named in this document (tags omitted).
UniProt O14744: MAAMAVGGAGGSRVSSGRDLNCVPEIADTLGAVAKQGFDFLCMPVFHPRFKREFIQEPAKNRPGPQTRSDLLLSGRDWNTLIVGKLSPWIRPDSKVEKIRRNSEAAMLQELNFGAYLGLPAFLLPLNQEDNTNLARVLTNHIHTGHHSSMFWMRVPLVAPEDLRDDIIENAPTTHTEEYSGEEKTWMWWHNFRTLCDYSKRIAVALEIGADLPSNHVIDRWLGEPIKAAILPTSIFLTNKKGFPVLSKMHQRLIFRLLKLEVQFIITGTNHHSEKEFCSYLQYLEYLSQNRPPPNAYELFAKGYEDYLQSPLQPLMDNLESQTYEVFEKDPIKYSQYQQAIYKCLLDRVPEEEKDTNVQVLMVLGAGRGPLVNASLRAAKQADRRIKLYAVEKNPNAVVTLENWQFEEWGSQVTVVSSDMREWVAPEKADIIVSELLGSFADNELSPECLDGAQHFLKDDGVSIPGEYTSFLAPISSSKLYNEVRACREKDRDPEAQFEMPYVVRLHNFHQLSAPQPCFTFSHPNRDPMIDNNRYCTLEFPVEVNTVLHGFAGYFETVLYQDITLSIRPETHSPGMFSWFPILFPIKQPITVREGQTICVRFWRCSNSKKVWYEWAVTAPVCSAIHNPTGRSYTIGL

How the values were obtained:
Flag-Slug (human) [1] = target: T1, Flag-Slug (human) (UniProt O43623); experiment: co-IP; one Flag-tagged and two HA-tagged proteins of Slug, PRMT5 and LSD1 co-expressed in HEK293T cells; immunoprecipitation with appropriate antibodies, western blot
T1 sequence: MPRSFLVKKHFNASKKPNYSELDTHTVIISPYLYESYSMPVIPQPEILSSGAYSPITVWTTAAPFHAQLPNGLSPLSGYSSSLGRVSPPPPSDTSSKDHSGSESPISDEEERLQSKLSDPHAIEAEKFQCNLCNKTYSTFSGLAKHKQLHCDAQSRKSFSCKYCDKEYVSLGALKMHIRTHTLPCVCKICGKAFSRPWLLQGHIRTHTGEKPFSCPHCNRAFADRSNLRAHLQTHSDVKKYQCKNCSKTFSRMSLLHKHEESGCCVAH

[2] = target: T2, Slug (endogenous) (human (endogenous in MDA-MB-231, SUM159 and Hs578T)) (UniProt O43623); experiment: co-IP; endogenous proteins; lysates of MDA-MB-231, SUM159 or Hs578T cells immunoprecipitated with antibodies against Slug, LSD1 or PRMT5, Protein G magnetic beads, 4 °C, lysis buffer 50 mM Tris-HCl pH 8.0, 0.2% NP-40, 150 mM NaCl, 2 mM EDTA; immunoblot
T2 sequence: T1 sequence

Flag-Slug (human) [3] = target: T1, Flag-Slug (human); experiment: co-IP; Flag peptide eluates of the anti-Flag affinity gel (HEK293T cells expressing Flag-Slug) analysed by western blotting with LSD1 and PRMT5 antibodies

Substance	binding (Flag-Slug (human) [1])	binding [2]	binding (Flag-Slug (human) [3])
HA-PRMT5 (from UniProt O14744 1-637) (enzyme)	binds	–	–
Protein arginine methyltransferase 5 (endogenous) (from UniProt O14744 1-637) (enzyme)	–	binds	binds
